For three molecules, binding results are on record in paper PMC7048395.

The chains behind the UniProt entries cited, without tags or fusion partners. Where a name states a change or a piece, a line headed by the entry shows the natural chain unless it says otherwise.
UniProt P0C0S5: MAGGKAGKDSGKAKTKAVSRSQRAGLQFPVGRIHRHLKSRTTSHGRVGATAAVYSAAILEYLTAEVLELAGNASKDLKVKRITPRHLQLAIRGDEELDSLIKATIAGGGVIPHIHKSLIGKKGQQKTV
UniProt Q7Z5J4: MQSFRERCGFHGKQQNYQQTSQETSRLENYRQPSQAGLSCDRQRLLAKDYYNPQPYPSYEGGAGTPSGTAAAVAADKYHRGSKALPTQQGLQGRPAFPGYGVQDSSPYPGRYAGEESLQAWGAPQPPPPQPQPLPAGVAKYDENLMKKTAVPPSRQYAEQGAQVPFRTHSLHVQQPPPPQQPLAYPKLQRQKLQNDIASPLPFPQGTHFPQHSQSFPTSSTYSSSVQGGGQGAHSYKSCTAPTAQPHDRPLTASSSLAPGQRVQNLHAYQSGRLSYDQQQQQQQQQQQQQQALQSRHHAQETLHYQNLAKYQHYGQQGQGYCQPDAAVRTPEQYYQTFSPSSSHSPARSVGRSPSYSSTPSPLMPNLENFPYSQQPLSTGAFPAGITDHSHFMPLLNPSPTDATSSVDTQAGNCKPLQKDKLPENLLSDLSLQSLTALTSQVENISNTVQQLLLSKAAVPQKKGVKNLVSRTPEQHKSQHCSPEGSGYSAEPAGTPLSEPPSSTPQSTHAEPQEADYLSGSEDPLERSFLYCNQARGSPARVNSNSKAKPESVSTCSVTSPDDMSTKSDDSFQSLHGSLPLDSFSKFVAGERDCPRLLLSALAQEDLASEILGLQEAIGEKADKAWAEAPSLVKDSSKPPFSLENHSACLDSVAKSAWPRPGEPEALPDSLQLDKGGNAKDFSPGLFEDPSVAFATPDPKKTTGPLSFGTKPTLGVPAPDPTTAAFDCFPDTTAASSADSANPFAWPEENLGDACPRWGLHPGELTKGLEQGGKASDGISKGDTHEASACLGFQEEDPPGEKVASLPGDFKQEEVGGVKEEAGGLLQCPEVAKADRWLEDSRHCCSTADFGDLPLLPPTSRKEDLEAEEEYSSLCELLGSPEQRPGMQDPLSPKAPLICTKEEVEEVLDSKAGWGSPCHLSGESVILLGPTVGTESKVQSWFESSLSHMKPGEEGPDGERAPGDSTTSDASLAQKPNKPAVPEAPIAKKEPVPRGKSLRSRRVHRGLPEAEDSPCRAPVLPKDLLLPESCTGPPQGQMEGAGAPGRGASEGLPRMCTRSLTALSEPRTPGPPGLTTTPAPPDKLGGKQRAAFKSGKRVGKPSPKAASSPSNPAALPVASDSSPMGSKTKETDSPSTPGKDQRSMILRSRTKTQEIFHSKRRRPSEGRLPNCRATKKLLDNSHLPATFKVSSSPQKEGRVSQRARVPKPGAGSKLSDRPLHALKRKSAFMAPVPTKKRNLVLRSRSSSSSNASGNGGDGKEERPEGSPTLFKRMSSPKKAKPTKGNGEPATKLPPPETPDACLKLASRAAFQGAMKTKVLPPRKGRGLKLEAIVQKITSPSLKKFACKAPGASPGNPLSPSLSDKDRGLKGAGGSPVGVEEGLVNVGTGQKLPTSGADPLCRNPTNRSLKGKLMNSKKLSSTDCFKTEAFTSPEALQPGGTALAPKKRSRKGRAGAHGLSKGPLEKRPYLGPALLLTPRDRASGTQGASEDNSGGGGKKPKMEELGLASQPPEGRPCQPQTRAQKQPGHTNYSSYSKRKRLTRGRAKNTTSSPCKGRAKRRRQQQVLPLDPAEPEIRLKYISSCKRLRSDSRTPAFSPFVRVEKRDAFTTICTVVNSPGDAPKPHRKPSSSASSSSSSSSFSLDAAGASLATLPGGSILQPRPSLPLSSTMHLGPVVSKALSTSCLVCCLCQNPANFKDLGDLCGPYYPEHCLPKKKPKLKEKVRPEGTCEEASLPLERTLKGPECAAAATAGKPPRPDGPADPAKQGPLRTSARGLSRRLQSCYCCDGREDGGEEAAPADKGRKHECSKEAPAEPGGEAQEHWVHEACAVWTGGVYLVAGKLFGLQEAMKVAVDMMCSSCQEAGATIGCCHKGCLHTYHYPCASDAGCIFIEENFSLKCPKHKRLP
UniProt Q9UGU0: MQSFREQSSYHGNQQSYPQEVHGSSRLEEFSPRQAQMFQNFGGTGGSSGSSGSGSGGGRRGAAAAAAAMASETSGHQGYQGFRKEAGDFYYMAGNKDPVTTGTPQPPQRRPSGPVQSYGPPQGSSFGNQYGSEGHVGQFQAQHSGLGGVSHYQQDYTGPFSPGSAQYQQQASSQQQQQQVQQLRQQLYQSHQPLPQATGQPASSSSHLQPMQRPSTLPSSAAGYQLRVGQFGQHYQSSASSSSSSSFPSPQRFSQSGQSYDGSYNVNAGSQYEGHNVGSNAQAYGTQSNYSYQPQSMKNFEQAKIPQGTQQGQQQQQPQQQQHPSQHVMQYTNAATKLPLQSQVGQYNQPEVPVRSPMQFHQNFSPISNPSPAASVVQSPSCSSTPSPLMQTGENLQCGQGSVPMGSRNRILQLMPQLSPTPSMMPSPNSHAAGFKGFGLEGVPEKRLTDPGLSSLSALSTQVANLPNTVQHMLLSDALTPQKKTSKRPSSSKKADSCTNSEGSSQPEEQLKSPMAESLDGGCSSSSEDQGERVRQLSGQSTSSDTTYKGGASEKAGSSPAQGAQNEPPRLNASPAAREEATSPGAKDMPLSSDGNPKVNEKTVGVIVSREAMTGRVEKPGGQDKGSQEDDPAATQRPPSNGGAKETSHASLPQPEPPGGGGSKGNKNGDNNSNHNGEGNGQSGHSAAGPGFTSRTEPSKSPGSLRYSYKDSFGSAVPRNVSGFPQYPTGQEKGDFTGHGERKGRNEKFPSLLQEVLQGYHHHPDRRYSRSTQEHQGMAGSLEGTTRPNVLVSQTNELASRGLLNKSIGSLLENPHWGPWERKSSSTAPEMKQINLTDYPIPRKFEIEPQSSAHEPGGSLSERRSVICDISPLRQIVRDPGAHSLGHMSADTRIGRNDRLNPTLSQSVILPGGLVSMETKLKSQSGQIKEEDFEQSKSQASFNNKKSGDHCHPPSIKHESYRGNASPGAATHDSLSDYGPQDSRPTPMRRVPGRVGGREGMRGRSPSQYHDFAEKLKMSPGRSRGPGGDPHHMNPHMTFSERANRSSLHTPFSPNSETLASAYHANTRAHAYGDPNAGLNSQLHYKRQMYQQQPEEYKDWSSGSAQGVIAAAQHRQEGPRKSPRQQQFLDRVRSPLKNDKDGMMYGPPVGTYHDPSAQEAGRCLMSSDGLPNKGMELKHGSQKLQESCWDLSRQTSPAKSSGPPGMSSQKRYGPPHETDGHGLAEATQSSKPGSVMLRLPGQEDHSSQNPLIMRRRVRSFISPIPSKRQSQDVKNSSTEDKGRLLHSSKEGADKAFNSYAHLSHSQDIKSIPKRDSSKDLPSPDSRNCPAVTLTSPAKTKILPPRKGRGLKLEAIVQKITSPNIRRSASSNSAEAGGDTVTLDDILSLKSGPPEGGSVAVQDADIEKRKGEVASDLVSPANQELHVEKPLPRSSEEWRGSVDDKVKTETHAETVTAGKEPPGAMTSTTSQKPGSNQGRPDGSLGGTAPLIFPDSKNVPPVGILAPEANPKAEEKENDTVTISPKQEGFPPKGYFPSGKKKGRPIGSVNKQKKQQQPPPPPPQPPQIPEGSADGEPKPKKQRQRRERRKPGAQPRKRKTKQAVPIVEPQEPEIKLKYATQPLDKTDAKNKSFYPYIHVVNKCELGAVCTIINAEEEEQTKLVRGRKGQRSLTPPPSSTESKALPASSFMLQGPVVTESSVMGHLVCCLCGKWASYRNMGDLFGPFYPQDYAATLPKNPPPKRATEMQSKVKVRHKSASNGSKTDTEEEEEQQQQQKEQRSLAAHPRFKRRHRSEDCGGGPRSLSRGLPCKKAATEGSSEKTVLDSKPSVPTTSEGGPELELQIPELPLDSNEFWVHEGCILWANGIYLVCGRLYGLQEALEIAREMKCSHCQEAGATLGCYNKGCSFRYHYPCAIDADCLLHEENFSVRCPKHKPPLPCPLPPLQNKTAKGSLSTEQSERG

The chains are these.
B1: PHF14 (endogenous, K562) (protein, UniProt O94880 1-948)
chain: MDRSSKRRQVKPLAASLLEALDYDSSDDSDFKVGDASDSEGSGNGSEDASKDSGEGSCSDSEENILEEELNEDIKVKEEQLKNSAEEEVLSSEKQLIKMEKKEEEENGERPRKKKEKEKEKEKEKEKEKEREKEKEKATVSENVAASAAATTPATSPPAVNTSPSVPTTTTATEEQVSEPKKWNLRRNRPLLDFVSMEELNDMDDYDSEDDNDWRPTVVKRKGRSASQKEGSDGDNEDDEDEGSGSDEDENDEGNDEDHSSPASEGGCKKKKSKVLSRNSADDEELTNDSLTLSQSKSNEDSLILEKSQNWSSQKMDHILICCVCLGDNSEDADEIIQCDNCGITVHEGCYGVDGESDSIMSSASENSTEPWFCDACKCGVSPSCELCPNQDGIFKETDAGRWVHIVCALYVPGVAFGDIDKLRPVTLTEMNYSKYGAKECSFCEDPRFARTGVCISCDAGMCRAYFHVTCAQKEGLLSEAAAEEDIADPFFAYCKQHADRLDRKWKRKNYLALQSYCKMSLQEREKQLSPEAQARINARLQQYRAKAELARSTRPQAWVPREKLPRPLTSSASAIRKLMRKAELMGISTDIFPVDNSDTSSSVDGRRKHKQPALTADFVNYYFERNMRMIQIQENMAEQKNIKDKLENEQEKLHVEYNKLCESLEELQNLNGKLRSEGQGIWALLGRITGQKLNIPAILRAPKERKPSKKEGGTQKTSTLPAVLYSCGICKKNHDQHLLLLCDTCKLHYHLGCLDPPLTRMPRKTKNSYWQCSECDQAGSSDMEADMAMETLPDGTKRSRRQIKEPVKFVPQDVPPEPKKIPIRNTRTRGRKRSFVPEEEKHEERVPRERRQRQSVLQKKPKAEDLRTECATCKGTGDNENLVRCDECRLCYHFGCLDPPLKKSPKQTGYGWICQECDSSSSKEDENEAERKNISQELNMEQKNPKK

Results are given in words; binding and its absence hold for the method and conditions named. In cells and extracts the contact can be indirect. Here binding means that the protein was enriched with, or labelled near, the bait; the list need not be complete.

The assay concerns the target endogenous H2A.Z.1 tagged with 3xFlag-2xStrep (K562, heterozygous clone) (human (endogenous in K562)) (UniProt P0C0S5). Nature of the assay: affinity purification with mass spectrometry; tandem affinity purification of endogenously 3xFlag-2xStrep-tagged H2A.Z isoform from K562 soluble nuclear extracts: anti-FLAG M2 resin, washes at 300 mM and 150 mM KCl, 3xFLAG peptide elution, Strep-Tactin Sepharose, biotin elution; fractions analysed by silver-stained gel, mass spectrometry (two replicates for each bait) and western blot; non-tagged cell line as mock. A general note: In western blotting, separated proteins are transferred to a membrane and probed.
As for RAI1 (from UniProt Q7Z5J4 1-1906), the binding entry is reported as “binds”.

As for TCF20 (from UniProt Q9UGU0 1-1960), the binding result is recorded as “binds”.

On to B1, for which the binding result was “binds”.
